Measured values published in paper PMC11804907.
No constants are given. Whether binding was seen depends on the method and setting. For some of these results: Binding calls can cover weak binding; strength is not graded here. For some of these results: Sequences can lack the tags named with a protein.

The chains behind the UniProt entries cited, without tags or fusion partners. Where a name states a change or a piece, a line headed by the entry shows the natural chain unless it says otherwise.
UniProt Q9VV79: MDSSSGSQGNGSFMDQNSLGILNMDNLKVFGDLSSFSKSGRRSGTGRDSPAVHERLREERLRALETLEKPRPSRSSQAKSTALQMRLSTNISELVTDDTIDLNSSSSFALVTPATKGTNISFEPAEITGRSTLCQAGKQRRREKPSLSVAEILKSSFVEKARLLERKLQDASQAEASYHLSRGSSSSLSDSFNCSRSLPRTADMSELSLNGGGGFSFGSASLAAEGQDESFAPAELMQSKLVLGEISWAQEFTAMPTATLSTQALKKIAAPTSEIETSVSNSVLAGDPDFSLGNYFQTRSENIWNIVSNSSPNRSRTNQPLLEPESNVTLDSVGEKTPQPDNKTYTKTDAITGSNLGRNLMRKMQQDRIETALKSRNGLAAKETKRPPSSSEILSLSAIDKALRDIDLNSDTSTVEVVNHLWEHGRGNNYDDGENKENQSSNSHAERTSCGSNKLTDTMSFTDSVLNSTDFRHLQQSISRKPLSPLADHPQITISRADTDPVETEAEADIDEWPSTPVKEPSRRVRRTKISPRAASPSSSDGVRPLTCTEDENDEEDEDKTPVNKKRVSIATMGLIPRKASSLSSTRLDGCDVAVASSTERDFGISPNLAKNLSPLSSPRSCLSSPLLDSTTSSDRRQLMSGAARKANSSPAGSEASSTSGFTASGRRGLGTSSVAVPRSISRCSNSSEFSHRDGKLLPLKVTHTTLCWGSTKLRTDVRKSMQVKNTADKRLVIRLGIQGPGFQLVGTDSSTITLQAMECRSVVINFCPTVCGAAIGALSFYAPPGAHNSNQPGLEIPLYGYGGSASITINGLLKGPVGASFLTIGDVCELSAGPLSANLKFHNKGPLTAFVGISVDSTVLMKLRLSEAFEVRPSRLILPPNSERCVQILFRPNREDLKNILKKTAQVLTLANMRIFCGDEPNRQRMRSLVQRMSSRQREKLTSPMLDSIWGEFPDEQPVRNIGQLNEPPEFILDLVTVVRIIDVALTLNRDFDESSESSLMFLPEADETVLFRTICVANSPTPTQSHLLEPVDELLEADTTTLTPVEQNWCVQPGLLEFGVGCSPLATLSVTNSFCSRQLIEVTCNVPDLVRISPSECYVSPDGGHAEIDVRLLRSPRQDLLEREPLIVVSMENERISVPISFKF

Assays:
[1] = target: Spd-2-GFP (Drosophila melanogaster) (UniProt Q9VV79); assay: recruitment to nanobody-coated beads injected into living embryos (fluorescence microscopy); streptavidin magnetic beads coupled to biotinylated anti-GFP nanobody, injected with mRNA encoding GFP or a GFP fusion (bait) into Drosophila embryos expressing RFP-Cnn or mCherry-TACC; red signal on the beads imaged by spinning disk confocal microscopy
[2] = target: WT Spd-2-ALFA (Drosophila melanogaster) (UniProt Q9VV79); assay: recruitment to nanobody-coated beads injected into living embryos (fluorescence microscopy); streptavidin magnetic beads coupled to biotinylated anti-ALFA-tag nanobody, injected with mRNA encoding ALFA-tagged WT or mutant Spd-2 (bait) into Drosophila embryos expressing Polo-GFP and RFP-Cnn or AurA-GFP and mCherry-TACC; signal on the beads imaged by spinning disk confocal microscopy
[3] = target: Spd-2∆Polo-∆ABD1 (Drosophila melanogaster); assay: as above
[4] = target: Spd-2∆Polo-ALFA (Drosophila melanogaster); assay: as above
[5] = target: Spd-2∆ABD1-ALFA (Drosophila melanogaster); assay: as above
[6] = target: Spd-2∆ABD2-ALFA (Drosophila melanogaster); assay: as above

binding [1] | binding [2] | binding [3] | binding [4] | binding [5] | binding [6] | Molecule
binds | binds |  |  |  |  | mCherry-TACC (from UniProt Q9VN51)
 | binds | binds weakly | binds | binds weakly | no binding | AurA-GFP (enzyme, UniProt Q27393 1-421) MSHPSDHVLRPKENAPHRMPEKSAAVLNMQKNLLLGKKPNSENMAPDSKPLPGSSGALIRSAATTVRPATKPGLGGSNSIASSEGNNFQKPMVPSVKKTTSEFAAPAPVAPIKKPESLSKQKPTAASSESSKELGAASSSAEKEKTKTETQPQKPKKTWELNNFDIGRLLGRGKFGNVYLAREKESQFVVALKVLFKRQIGESNVEHQVRREIEIQSHLRHPHILRLYAYFHDDVRIYLILEYAPQGTLFNALQAQPMKRFDERQSATYIQALCSALLYLHERDIIHRDIKPENLLLGHKGVLKIADFGWSVHEPNSMRMTLCGTVDYLPPEMVQGKPHTKNVDLWSLGVLCFELLVGHAPFYSKNYDETYKKILKVDYKLPEHISKAASHLISKLLVLNPQHRLPLDQVMVHPWILAHTQ
